Reference: PubChem BioAssay AID540276 (National Center for Advancing Translational Sciences (NCATS), 2011)
In all, about 300,000 compounds went through this assay and about 5,400 (1.8%) were called active. Inconclusive results, whose numbers are uncertain, are shown with a selection of clear calls. The call rests on the fitted dose curve; tested in HEK293 cells. Potencies of inconclusive entries are doubtful fits and often do not repeat.

Assay: qHTS for inhibitors of binding or entry into cells for Marburg Virus
Details: Marburg virus pseudotyped entry inhibition, cell reporter; activity change, negative = inhibition: at 37.8 µM (top of the series) unless noted
On the % scale 0 is the no-effect control and ±100 the full control effect; potency means the concentration at half of the fitted maximal effect.

Compound | activity change, negative = inhibition | Potency
Nn1c(SCC(=O)N2CCCc3ccccc32)nnc1-c1ccc(Cl)cc1 | inactive: 1.69% [at 46.1 µM] | –
CC(C)c1ccc(NC2CCCN(C(=O)CCN3CCCCC3=O)C2)cc1 (stereo not given) | inactive: 0.157% | –
CC(C)c1ccc(NC(=O)Cn2c(=O)oc3cccnc32)cc1 | – | inconclusive: 35.5 µM [inhibitor, partial curve, poor fit]
CC(OC(=O)c1cc2sccc2n1C)C(=O)NCc1ccc2c(c1)OCO2 (stereo not given) | – | inconclusive: 20.6 µM [inhibitor, single point]
Cc1cc(-c2nc3cc(F)ccc3s2)ccc1N | – | active: 7.08 µM
Cc1csc(NC(=O)c2ccc3ccccc3n2)n1 | – | inconclusive: 35.5 µM [inhibitor, single point]
CC(=O)Nc1ccc(-c2nc3cc(Cl)ccc3o2)cc1 | – | inconclusive: 0.562 µM [activator, full curve, poor fit]
CC(C)(C)C(=O)NCc1ccc(C(=O)CN2C(=O)NC3(CCCC3)C2=O)s1 | – | inconclusive: 0.398 µM [inhibitor, partial curve, poor fit]
Cc1cc(C(=O)COC(=O)c2ccccc2Br)c(C)n1CC1CCCO1 (stereo not given) | – | inconclusive: 7.08 µM [inhibitor, partial curve, poor fit]
CCOC(=O)[C@]12C[C@]3(C)CCCN(C(=O)N[C@@H]1c1ccccc1)[C@@H]32 | – | inconclusive: 0.944 µM [inhibitor, full curve, poor fit]
COCc1cc(C)nc2sc(C(=O)OC(C)C)c(N)c12 | – | inconclusive: 1.26 µM [activator, single point]
COc1cccc(C(=O)NCC2CCN(c3ccc(S(=O)(=O)N4CCOCC4)cc3)CC2)c1 | – | inactive
CCOC(=O)C(C)(C)NS(=O)(=O)c1ccc(Cl)c([N+](=O)[O-])c1 | – | inconclusive: 4.47 µM [inhibitor, partial curve, poor fit]
CC(=O)[C@]12C[C@@H]3CCCN(C(=O)N[C@@H]1c1ccccc1)[C@@H]32 | inactive: 0.331% [at 14.2 µM] | –
O=C(CNc1cccc([N+](=O)[O-])c1)N/N=C/c1ccc(F)cc1 | – | inconclusive: 6.31 µM [inhibitor, single point]
CS(=O)(=O)c1ccc2nc(NC(=O)c3ccccc3)sc2c1 | – | inconclusive: 17.8 µM [inhibitor, single point]
Cc1cccc(NS(=O)(=O)c2ccc(C)c(C(=O)NCc3cccnc3)c2)c1 | – | inconclusive: 0.562 µM [activator, single point]
Cc1cccc(OCCCCc2c(C)n[nH]c2C)c1 | – | inconclusive: 7.3 µM [inhibitor, partial curve, poor fit]
CCOc1ccc(NCc2nc3ccccc3n2CCOc2ccccc2)cc1 | – | inconclusive: 35.5 µM [inhibitor, single point]
Cc1cccc(C)c1NC(=O)CNC(=O)c1cnccn1 | – | inconclusive: 0.316 µM [inhibitor, partial curve, poor fit]

Compound | activity change, negative = inhibition | Potency
Cc1nn(Cc2c(Cl)cccc2Cl)c(C)c1NC(=O)CCCn1nc([N+](=O)[O-])c(Cl)c1C | inactive: -36.5% | –
Cc1ccc(S(=O)(=O)CC(N)=O)cc1 | inactive: 17.5% | –
O=C(CCC1N=C2c3ccccc3N=C(SCc3ccc(Cl)cc3)N2C1=O)NCCc1ccccc1 (stereo not given) | – | inconclusive: 35.5 µM [inhibitor, single point]
COc1cccc(-c2ccc3c(N)c(C(=O)NC4CC4)sc3n2)c1 | – | inconclusive: 35.5 µM [inhibitor, single point]
N#Cc1cc2c(nc1SCC(=O)Nc1sc3c(c1C#N)CCC3)CCC2 | inactive: 17.4% | –
O=C(Nc1ccccc1N1CCN(C(=O)c2ccc(Cl)cc2)CC1)c1cccnc1 | – | inconclusive: 0.73 µM [inhibitor, full curve, poor fit]
COc1cc2c(cc1OC)C(Cc1ccc(O)cc1)N(C)CC2 (stereo not given) | inactive: -8.24% | –
c1cc2c(cc1C1CCCCC1)c1c3n2CCCNC3CCC1 (stereo not given) | – | inconclusive: 22.4 µM [inhibitor, single point]
O=C(Nc1ccc(F)cc1)c1ccccc1Oc1ccc(C(F)(F)F)cc1[N+](=O)[O-] | – | inconclusive: 14.6 µM [inhibitor, partial curve, poor fit]
COCn1c(-c2ccc(OC)c(OC)c2)nc2ccccc21 | – | inconclusive: 1.3 µM [activator, full curve, poor fit]
O/N=C/c1cc(Br)ccc1OCc1cccc(F)c1 | – | inconclusive: 35.5 µM [inhibitor, single point]
Fc1ccc(NC(=S)N2CCN(c3cccc(C(F)(F)F)c3)CC2)cc1 | – | inconclusive: 0.1 µM [activator, full curve, poor fit]
Cc1ccnc(NC(=O)CCCc2ccccc2)c1 | – | inconclusive: 3.98 µM [activator, full curve, poor fit]
O=C(CCCCn1c(=O)c2ccccc2n(Cc2ccc(F)cc2)c1=O)NCc1ccco1 | – | inconclusive: 20 µM [inhibitor, partial curve, poor fit]
COc1cc(OC)c(C(=O)C=Cc2ccc(OC)c(OC)c2)c(OC)c1 | – | inconclusive: 11.2 µM [inhibitor, partial curve, poor fit]
Cc1cc(C)nc(Sc2ncnc(N)c2[N+](=O)[O-])n1 | – | inconclusive: 8.91 µM [inhibitor, partial curve, poor fit]
Cc1ccccc1N(C(=O)CCC(=O)Nc1ccccn1)C(C(=O)NC(C)C)c1ccc(F)cc1 (stereo not given) | – | inconclusive: 6.31 µM [inhibitor, partial curve, poor fit]
COc1ccc(-n2c(=S)[nH]c3cc(C(=O)Nc4cc(OC)c(OC)c(OC)c4)ccc3c2=O)c(OC)c1 | – | inconclusive: 0.708 µM [inhibitor, single point]
COc1cc(C2/C(=C(\O)c3ccc4c(c3)CC(C)O4)C(=O)C(=O)N2CCCn2ccnc2)ccc1O (stereo not given) | – | inconclusive: 35.5 µM [inhibitor, single point]
CC1(C)CC(=O)C2=C(C1)N(Cc1ccco1)C(=O)C2(NC(=O)c1cccnc1)C(F)(F)F (stereo not given) | – | inconclusive: 0.058 µM [inhibitor, full curve, poor fit]

An excerpt taken from the entries so far, as a working copy:
Compound | activity change, negative = inhibition | Potency
CS(=O)(=O)c1ccc2nc(NC(=O)c3ccccc3)sc2c1 | – | inconclusive: 17.8 µM [inhibitor, single point]
Cc1cccc(NS(=O)(=O)c2ccc(C)c(C(=O)NCc3cccnc3)c2)c1 | – | inconclusive: 0.562 µM [activator, single point]
